The source of these data is patent US20110229461A1 (UCB, published 2011).

Chains of the proteins cited; added tags and fusions are not shown. Residues count along the entry.
UniProt Q15116, residues 25-170: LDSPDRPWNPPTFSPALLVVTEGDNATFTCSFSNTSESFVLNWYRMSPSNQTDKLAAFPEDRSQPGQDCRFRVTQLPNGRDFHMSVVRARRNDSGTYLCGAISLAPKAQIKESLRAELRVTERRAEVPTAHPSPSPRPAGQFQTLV

For experiment [1], the target named is human PD-1 (recombinant, titrated in BIAcore) (human) (UniProt Q15116). Description: SPR BIAcore 3000; this graft is the exception (affinity not improved).
For experiment [2] the target is unchanged. Kind of experiment: SPR BIAcore 3000. A general note: In SPR one partner is held on a chip, and binding of the other changes the refractive index at the surface.

Results are given in words; binding and its absence hold for the method and conditions named. Some binding calls cover weakened binding; strength is not graded here.

B1: 949 VK1 gL11 gH1a (antibody, V domains shown)
VH: EVQLVQSGAEVKKPGASVKVSCKAFGYTFTTYPIEWMRQAHGQGLEWIGNFHPYNDDTKYNEKFKGRVTMTVDKSTTTVYMELSSLRSEDTAVYYCARENYGSHGGFVYWGQGTLVTVS
VL: ENVLTQSPFSLSASVGDRVTITCRASSSVISSYLHWYQQKPAKAPKLWIYSTSNLASGVPDRFSGSGSGTSYTLTISSLQPEDFATYYCQQYNSYPLTFGGGTKVEIK
notes: Humanised; human kappa constant (Km3)
Take B1: in experiment [1], the binding entry is on record as “binds”.

B2: 949 VK3 gL11 gH1a (antibody, V domains shown)
VH: B1 VH
VL: ENVLTQSPGTLSLSPGERATLSCRASSSVISSYLHWYQQKPGQAPRLWIYSTSNLASGVPDRFSGSGSGTSYTLTISRLEPEDFATYYCQQYNSYPLTFGGGTKVEIK
notes: as for B1
Regarding B2, in experiment [2], the binding result was “binds”.
